Experimental data reported in publication PMC3648552.
Results are given in words; binding and its absence hold for the method and conditions named. In cells and extracts the contact can be indirect. A yes stands for co-enrichment or nearness to the bait. Other partners may have been found.

By UniProt entry, the sequences of proteins in these tests, tags left out.
UniProt O94763: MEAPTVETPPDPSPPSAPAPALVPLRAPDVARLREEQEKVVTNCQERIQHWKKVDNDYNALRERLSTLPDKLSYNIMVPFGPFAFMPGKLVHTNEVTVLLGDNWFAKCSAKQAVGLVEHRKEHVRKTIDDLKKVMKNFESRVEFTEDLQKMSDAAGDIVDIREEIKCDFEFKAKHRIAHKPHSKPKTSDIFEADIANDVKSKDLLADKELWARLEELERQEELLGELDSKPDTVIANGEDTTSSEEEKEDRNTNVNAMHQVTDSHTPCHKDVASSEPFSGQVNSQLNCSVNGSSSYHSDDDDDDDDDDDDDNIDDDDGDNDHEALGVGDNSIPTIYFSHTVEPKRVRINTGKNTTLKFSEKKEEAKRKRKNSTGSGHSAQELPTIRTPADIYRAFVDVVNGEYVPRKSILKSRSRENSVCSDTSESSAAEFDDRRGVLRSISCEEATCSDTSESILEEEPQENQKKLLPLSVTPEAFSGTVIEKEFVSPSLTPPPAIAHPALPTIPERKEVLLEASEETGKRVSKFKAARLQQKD
UniProt Q9NUG6: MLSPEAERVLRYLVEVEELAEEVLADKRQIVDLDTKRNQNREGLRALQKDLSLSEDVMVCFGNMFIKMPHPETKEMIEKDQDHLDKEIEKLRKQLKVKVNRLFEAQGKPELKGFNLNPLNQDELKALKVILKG
UniProt Q96MX6: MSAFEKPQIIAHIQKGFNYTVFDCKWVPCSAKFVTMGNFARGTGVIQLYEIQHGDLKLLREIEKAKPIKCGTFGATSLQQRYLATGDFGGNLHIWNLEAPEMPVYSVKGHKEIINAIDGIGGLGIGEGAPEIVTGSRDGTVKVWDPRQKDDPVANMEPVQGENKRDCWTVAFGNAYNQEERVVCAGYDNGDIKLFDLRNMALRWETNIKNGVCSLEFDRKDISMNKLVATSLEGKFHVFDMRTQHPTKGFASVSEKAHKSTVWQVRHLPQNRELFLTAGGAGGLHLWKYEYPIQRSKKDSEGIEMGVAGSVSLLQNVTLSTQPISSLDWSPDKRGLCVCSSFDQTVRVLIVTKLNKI
UniProt Q9Y265: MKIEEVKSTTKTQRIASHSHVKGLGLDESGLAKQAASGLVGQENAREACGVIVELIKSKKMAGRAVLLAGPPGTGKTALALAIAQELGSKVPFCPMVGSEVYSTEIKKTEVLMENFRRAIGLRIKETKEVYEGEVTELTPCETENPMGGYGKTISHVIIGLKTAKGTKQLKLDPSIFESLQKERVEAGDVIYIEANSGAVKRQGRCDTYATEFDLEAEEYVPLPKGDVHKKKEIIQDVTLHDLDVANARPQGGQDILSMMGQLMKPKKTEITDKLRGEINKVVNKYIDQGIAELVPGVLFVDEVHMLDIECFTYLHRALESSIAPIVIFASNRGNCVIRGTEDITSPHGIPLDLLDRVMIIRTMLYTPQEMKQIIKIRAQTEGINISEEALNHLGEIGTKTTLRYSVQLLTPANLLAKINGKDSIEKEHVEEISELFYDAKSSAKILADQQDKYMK
UniProt Q9UHV9: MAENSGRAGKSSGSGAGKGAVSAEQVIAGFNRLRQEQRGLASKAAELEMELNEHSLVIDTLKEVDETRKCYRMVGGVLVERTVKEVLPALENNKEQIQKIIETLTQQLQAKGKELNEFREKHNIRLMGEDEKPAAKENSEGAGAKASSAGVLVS
UniProt O15212: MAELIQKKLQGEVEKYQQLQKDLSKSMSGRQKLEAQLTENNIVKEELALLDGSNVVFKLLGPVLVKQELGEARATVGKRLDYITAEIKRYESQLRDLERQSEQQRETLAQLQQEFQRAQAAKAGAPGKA

Molecular target: FLAG-URI alpha (Unconventional prefoldin RPB5 Interactor), stably overexpressed in LNCaP cells (UniProt O94763)
Test: affinity purification with mass spectrometry; FLAG-URI precipitated on FLAG-agarose beads from nuclear extracts of LNCaP-FLAG-URI cells (LNCaP-vector as control), washes with 300 and 150 mM KCl, eluted with 3xFLAG peptide, MudPIT; done twice

Row | Substance | binding
1 | P53 and DNA damage-Regulated Gene 1 (PDRG1), endogenous in LNCaP cells (from UniProt Q9NUG6 1-133) | binds
2 | WDR92, endogenous in LNCaP cells (from UniProt Q96MX6 1-357) | binds
3 | RUVBL1, endogenous in LNCaP cells (from UniProt Q9Y265 1-456) | binds

Other lines, results leading:

Row | binding | Substance
4 | binds | PFDN2, endogenous in LNCaP cells (from UniProt Q9UHV9 1-154)
5 | binds | PFDN6, endogenous in LNCaP cells (from UniProt O15212 1-129)
